No constants are given. Whether binding was seen depends on the method and setting. Binding seen in cells or lysates may run through a third protein. Some binding calls cover weakened binding; strength is not graded here. For part of these data: Tags and fused reporters may be left off the sequences shown.
What was measured:
[1] = target: EGFR (HEK293T lysate) (UniProt P00533); experiment: co-IP
[2] = target: T1, HA-WIPI2d (UniProt Q9Y4P8); experiment: co-IP
T1 sequence: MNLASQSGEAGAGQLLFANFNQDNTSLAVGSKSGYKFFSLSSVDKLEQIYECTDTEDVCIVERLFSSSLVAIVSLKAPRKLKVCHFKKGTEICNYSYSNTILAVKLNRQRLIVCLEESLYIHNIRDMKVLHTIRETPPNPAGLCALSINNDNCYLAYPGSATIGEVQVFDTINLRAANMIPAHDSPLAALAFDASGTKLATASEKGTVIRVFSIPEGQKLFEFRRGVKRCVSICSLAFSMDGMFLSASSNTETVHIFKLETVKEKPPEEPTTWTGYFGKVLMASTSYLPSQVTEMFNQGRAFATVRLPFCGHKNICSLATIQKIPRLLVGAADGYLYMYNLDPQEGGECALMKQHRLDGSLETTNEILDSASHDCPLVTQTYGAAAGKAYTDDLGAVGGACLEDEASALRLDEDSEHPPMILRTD

**Q.** Which binding [1] does the source give for “HRS (HEK293T lysate, Extended Data Fig. 8e) (from UniProt O14964 1-777)” here?
**A.** binds

B1: 3×FLAG-Rubicon (1–972) (protein, UniProt Q92622 1-972)
chain: MRPEGAGMELGGGEERLPEESRREHWQLLGNLKTTVEGLVSTNSPNVWSKYGGLERLCRDMQSILYHGLIRDQACRRQTDYWQFVKDIRWLSPHSALHVEKFISVHENDQSSADGASERAVAELWLQHSLQYHCLSAQLRPLLGDRQYIRKFYTDAAFLLSDAHVTAMLQCLEAVEQNNPRLLAQIDASMFARKHESPLLVTKSQSLTALPSSTYTPPNSYAQHSYFGSFSSLHQSVPNNGSERRSTSFPLSGPPRKPQESRGHVSPAEDQTIQAPPVSVSALARDSPLTPNEMSSSTLTSPIEASWVSSQNDSPGDASEGPEYLAIGNLDPRGRTASCQSHSSNAESSSSNLFSSSSSQKPDSAASSLGDQEGGGESQLSSVLRRSSFSEGQTLTVTSGAKKSHIRSHSDTSIASRGAPESCNDKAKLRGPLPYSGQSSEVSTPSSLYMEYEGGRYLCSGEGMFRRPSEGQSLISYLSEQDFGSCADLEKENAHFSISESLIAAIELMKCNMMSQCLEEEEVEEEDSDREIQELKQKIRLRRQQIRTKNLLPMYQEAEHGSFRVTSSSSQFSSRDSAQLSDSGSADEVDEFEIQDADIRRNTASSSKSFVSSQSFSHCFLHSTSAEAVAMGLLKQFEGMQLPAASELEWLVPEHDAPQKLLPIPDSLPISPDDGQHADIYKLRIRVRGNLEWAPPRPQIIFNVHPAPTRKIAVAKQNYRCAGCGIRTDPDYIKRLRYCEYLGKYFCQCCHENAQMAIPSRVLRKWDFSKYYVSNFSKDLLIKIWNDPLFNVQDINSALYRKVKLLNQVRLLRVQLCHMKNMFKTCRLAKELLDSFDTVPGHLTEDLHLYSLNDLTATRKGELGPRLAELTRAGATHVERCMLCQAKGFICEFCQNEDDIIFPFELHKCRTCEECKACYHKACFKSGSCPRCERLQARREALARQSLESYLSDYEEEPAEALALEAAVLEAT
**Q.** B1 was tested. Which binding [2] did it give?
**A.** binds

B2: 3×FLAG-Rubicon (1-625, 761–972) (protein, UniProt Q92622)
chain: MRPEGAGMELGGGEERLPEESRREHWQLLGNLKTTVEGLVSTNSPNVWSKYGGLERLCRDMQSILYHGLIRDQACRRQTDYWQFVKDIRWLSPHSALHVEKFISVHENDQSSADGASERAVAELWLQHSLQYHCLSAQLRPLLGDRQYIRKFYTDAAFLLSDAHVTAMLQCLEAVEQNNPRLLAQIDASMFARKHESPLLVTKSQSLTALPSSTYTPPNSYAQHSYFGSFSSLHQSVPNNGSERRSTSFPLSGPPRKPQESRGHVSPAEDQTIQAPPVSVSALARDSPLTPNEMSSSTLTSPIEASWVSSQNDSPGDASEGPEYLAIGNLDPRGRTASCQSHSSNAESSSSNLFSSSSSQKPDSAASSLGDQEGGGESQLSSVLRRSSFSEGQTLTVTSGAKKSHIRSHSDTSIASRGAPESCNDKAKLRGPLPYSGQSSEVSTPSSLYMEYEGGRYLCSGEGMFRRPSEGQSLISYLSEQDFGSCADLEKENAHFSISESLIAAIELMKCNMMSQCLEEEEVEEEDSDREIQELKQKIRLRRQQIRTKNLLPMYQEAEHGSFRVTSSSSQFSSRDSAQLSDSGSADEVDEFEIQDADIRRNTASSSKSFVSSQSFSHCFLHSTSRVLRKWDFSKYYVSNFSKDLLIKIWNDPLFNVQDINSALYRKVKLLNQVRLLRVQLCHMKNMFKTCRLAKELLDSFDTVPGHLTEDLHLYSLNDLTATRKGELGPRLAELTRAGATHVERCMLCQAKGFICEFCQNEDDIIFPFELHKCRTCEECKACYHKACFKSGSCPRCERLQARREALARQSLESYLSDYEEEPAEALALEAAVLEAT
**Q.** B2 was tested. Which binding [2] did it give?
**A.** no binding

— paper doi:10.1101/2024.05.08.593233
